The text below walks through data of PubChem BioAssay AID2685 (National Center for Advancing Translational Sciences (NCATS), 2010).

What is called AC50 is the concentration giving half of the maximal activity seen. Lower therefore signals greater potency.

Each structure is given as a SMILES string. This is one part of the list. Shown are side measurements of this screen, not its main read-out; they come without a call. Most of these compounds were active or inconclusive in the main read-out, so they are no random draw. Potencies come from curve fits of mixed quality, noted in brackets.

A short description of the assay: qHTS Assay for Lipid Storage Modulators in Drosophila S3 Cells.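 As to cell number change: cells counted by Cell Tracker Red CMTPX staining in the red channel.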 The settings on record: BODIPY lipid droplet fluorescence, 18-24 h; for cell number change: measured here: cell count max response, cells fed with added oleic acid. Summed up:
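Drosophila S3 cells loaded with oleic acid (400 uM, as added) and compounds at several concentrations; lipid droplets imaged by 488-nm laser-scanning cytometry, 500–530 nm intensity and object ratio to cell channel. Percent activity normalized to 20 uM Triacsin C.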
For orientation: In qHTS, concentration-response curves come from the screen itself.

Where [1] appears, read: measured here: lipid fluorescence (Fed channel) AC50, cells fed with added oleic acid.
Setting [2] is: measured here: cell number channel AC50, cells fed with added oleic acid.

Take `CNC(=O)c1ccsc1NC(=O)c1ccc(S(=O)(=O)N2CCc3ccccc32)cc1`: the cell number change stood at 4.87%. Also, under setting [1], the AC50 is 2.06 µM [rising, partial curve, poor fit]. Turning to `CCOC(=O)c1c(S(=O)(=O)NCc2cccs2)c(C)n(C)c1C`, the cell number change is -7.58%. Also, the AC50 under setting [1] is 29.1 µM [falling, single point].

As for `CC(C)CNC(=O)COc1cccc(C(=O)NCc2ccccc2)c1`, the cell number change came to 10.9%. In addition, under setting [1], the AC50 is 5.17 µM [rising, single point].

Consider `CCOc1ccc(NC(=O)CCCNC(=O)Cn2cnc3sc(C)c(C)c3c2=O)cc1`, for which the cell number change was determined as 18.4%. Still for that read-out and setting: to `CCCc1cc(=O)[nH]c(SCC(=O)N(CC)c2c(N)n(Cc3ccccc3)c(=O)[nH]c2=O)n1` belongs 2.5%.

With `COc1cc(OC)c(NC(=O)[C@@H]2CCC(=O)N2C2OC(=O)c3c2ccc(OC)c3OC)cc1Cl` (some centres undefined), under setting [1], the AC50 is 29.1 µM [falling, single point].

On to `CCC(C)N1C(=O)CCC1C(=O)N1CCN(c2ccc(F)cc2)CC1` (centres undefined), for which the cell number change was -89.3%. In addition, the AC50 under setting [2] is 20.6 µM [falling, single point]. Moreover, the AC50 under setting [1] was 18.4 µM [falling, partial curve]. Take `CC(C)c1ccccc1NC(=O)COC(=O)Cc1cccc(C(F)(F)F)c1`: the AC50 under setting [2] was 0.731 µM [falling, single point] and the AC50 under setting [1] was 7.31 µM [falling, partial curve, poor fit]. For the compound `O=[N+]([O-])c1ccc(NCc2ccncc2)cc1`, the cell number change worked out at 39.6%. Moreover, the AC50 under setting [2] was 3.26 µM [rising, partial curve, poor fit]. Regarding `Cc1c(C)c2cc(Cl)c(O)c(CN(C)C)c2oc1=O`, the cell number change is -8.41%. Further, the AC50 under setting [1] is 0.517 µM [falling, partial curve]. As for `COc1cccc(C(=O)COc2ccc3c(C)c(Cc4ccccc4)c(=O)oc3c2C)c1`, the cell number change was 111%. Also, under setting [2], the AC50 was 29.1 µM [rising, single point]. Consider `CC(NC(=O)C(C)N1CCN(Cc2ccccc2)CC1)c1ccc(F)cc1` (centres undefined), for which the cell number change turned out to be 15%. For the same compound, the AC50 under setting [1] is 6.51 µM [rising, single point]. Turning to `CC(C)(C)CC(=O)NC(=S)N1CCCCCC1`, the cell number change is 0.279%. Take `O=C(CCc1n[nH]c(=O)[nH]c1=O)Nc1cccc([N+](=O)[O-])c1`: the cell number change is 7.05%. Moreover, the AC50 under setting [1] is 7.31 µM [rising, single point]. Regarding `Cc1nn(-c2ccccc2)c(C)c1NC(=O)COC(=O)/C=C/c1ccccc1`, the AC50 under setting [1] was 29.1 µM [rising, single point].

Regarding `CS(=O)(=O)c1ccc(NC(=O)C2CCCN(C(=O)c3ccc(Cl)cc3)C2)cc1` (centres undefined), the cell number change was found to be 0.857%. The AC50 under setting [1] is 0.461 µM [rising, single point].

Turning to `Cc1sc2ncnc(SCc3ccco3)c2c1C`, the cell number change was 96.5%. Under setting [2], the AC50 was 10.3 µM [rising, partial curve].

Consider `O=C(c1nnsc1S(=O)(=O)c1ccc(Cl)cc1)N1CCOCC1`, for which the cell number change was -63.4%. For the same compound, the AC50 under setting [2] is 5.17 µM [falling, partial curve, poor fit]. `CC1CCC2(CC1)NC(=O)N(CC(=O)c1ccc(Cl)s1)C2=O` (centres undefined): the cell number change was -13.2%. Further, the AC50 under setting [1] was 5.8 µM [rising, full curve].

`CCCCC(Sc1nc(N)c(NC(=O)c2ccc(OC)cc2)c(=O)[nH]1)C(=O)O` (centres undefined): the cell number change turned out to be 41.7%. Further, under setting [1], the AC50 was 0.164 µM [falling, full curve, poor fit].

With `COc1ccc2oc(C(=O)NC(C)(C)C)c(C)c2c1`, the cell number change was -1.09%. Moreover, the AC50 under setting [1] is 23.1 µM [falling, single point]. Turning to `O=c1c(-c2ccc(Br)cc2)[n+]([O-])c2ccccc2n1OCc1ccccn1`, the cell number change was -22.4%. The AC50 under setting [2] is 4.11 µM [falling, single point]. With `O=C(Nc1ccc2nc(N3CCOCC3)sc2c1)c1ccc(F)cc1`, the cell number change came out at 3.35%. In addition, under setting [1], the AC50 is 0.731 µM [rising, single point].

`CCOc1ccc2ccccc2c1/C=N/NC(=O)CNC(=O)C(c1ccccc1)c1ccccc1`: the cell number change was -23.6%. Also, the AC50 under setting [1] was 16.4 µM [falling, single point]. As to `O=C(COC(=O)CCC(=O)c1ccc(Cl)cc1)NC1CC1`, the cell number change came to 41.1%.

Regarding `CN1CCCN(S(=O)(=O)c2ccccc2)c2nc3ccccc3nc21`, the cell number change came to 8.48%. For the same compound, the AC50 under setting [1] is 0.411 µM [rising, full curve, poor fit]. Turning to `N#CC[C@H](Cc1ccccc1)N1CC[C@@H](O)CCC1=O`, the cell number change was 23.1%. In addition, under setting [1], the AC50 was 29.1 µM [rising, single point]. Consider `Cc1[nH]c2ccccc2c1SCc1n[nH]c(=S)n1C`, for which the cell number change worked out at 24.3%. With `O=C(NCCc1cnc[nH]1)Nc1cccc(C(F)(F)F)c1`, the cell number change is -24.1%. For the same compound, the AC50 under setting [1] is 6.51 µM [falling, single point].

Regarding `CCn1c(C)nc2cc(C(=O)OCCC(F)(F)F)ccc21`, the cell number change was -60.7%. Moreover, the concentration at half-maximal activity (AC50) under setting [2] is 10.3 µM [falling, partial curve, poor fit]. The AC50 under setting [1] is 23.1 µM [falling, partial curve].

For the compound `COc1ccccc1/C=C/C(=O)NC(=S)NCC1CCCO1` (centres undefined), the cell number change was 39.7%. Also, the AC50 under setting [2] is 25.9 µM [rising, single point]. Also, the AC50 under setting [1] is 29.1 µM [rising, single point]. With `C=CCc1ccc(OCC(O)CN2CCN(c3ccccc3)CC2)c(OC)c1` (centres undefined), the cell number change was -38.5%. The AC50 under setting [2] was 18.4 µM [falling, single point]. The AC50 under setting [1] was 18.4 µM [falling, single point]. `C[C@@H](NC(=O)c1nc[nH]c1C(=O)N[C@H](C)c1ccccc1)c1ccccc1`: the cell number change was -34.9%. Further, the AC50 under setting [2] is 13 µM [falling, single point]. Also, under setting [1], the AC50 is 1.84 µM [rising, partial curve]. `CC(C)CCNC(=O)NC(=O)CSc1nnc(-c2ccccc2F)n1N`: the AC50 under setting [2] is 4.11 µM [falling, partial curve] and the AC50 under setting [1] is 0.366 µM [falling, single point]. Turning to `CC1CCCC(C)N1C(=O)CCN1C(=O)C2C3C=CC(C3)C2C1=O` (centres undefined), the cell number change worked out at 20%. Further, the AC50 under setting [1] was 20.6 µM [rising, single point]. `CN(C)c1nc2n(c(=O)n1)CCS2`: the cell number change was -2.26%. In addition, the AC50 under setting [1] was 0.00651 µM [falling, full curve].

For `CS(=O)(=O)c1ccccc1C(=O)N1CCN(S(=O)(=O)c2ccc(C3CCCCC3)cc2)CC1`, under setting [1], the AC50 is 0.291 µM [rising, partial curve]. Consider `CCOc1ccc(C(CCc2ccccc2)NC(=O)c2ccc(OC)c(OC)c2)cc1OCC` (centres undefined), for which the cell number change is -10.9%.

Turning to `C/C(=N\NC(N)=S)c1ccc(-n2ccnc2)cc1`, the cell number change was determined as 1.08%. Besides, the AC50 under setting [1] is 0.164 µM [rising, single point].
